PubChem BioAssay AID248 (DTP/NCI, 2004)
The list is a part of this screen's results and no random one: it is rich in T/C values a quarter to a half above the control, in often repeated tests (any T/C) and in doses without a T/C. Further doses and runs are listed elsewhere. T/C: endpoint of the treated group in % of that of the vehicle group. Some entries give survivors of the animals treated and no T/C: the source holds a T/C of zero for them, seemingly a mark for toxic or unscored doses. Some survivor counts are full or nearly so, which does not show that the dose was tolerated: the source hardly ever lists a survival T/C far under the control, and the zero likely stands for such cases as well. Counts of survivors are from the toxicity check (mostly the fifth day) where no day follows; animals may have died later. Schedules are NCI's codes, taken here to give the interval after Q, in days (D) or hours (H), and the number of doses after X. Some schedules carry Z or #; the key to these is not given. Some entries hold several experiments; their values stand side by side, smallest first. For survival time, this PubChem deposit counts one and a half times the control or more as active, and values a quarter to a half above the control carry no call in these data; other NCI protocols may use other cut-offs. Some T/C values are followed by the survivors on the day toxicity was checked, most often the fifth; without a count, all were alive then.

System: L1210 leukemia ip in BDF1 mice, survival T/C
Assay: NCI In Vivo Anticancer Drug Screen. Data for tumor model L1210 Leukemia (intraperitoneal) in B6D2F1 (BDF1) mice
Conditions: T/C endpoint: mean survival time, higher T/C = longer survival
[1] = dose: 200.0 mg/kg/injection, schedule: Q01DX009 (ip), vehicle: Klucel (hydroxypropylcellulose) (HPC)
[2] = dose: 400.0 mg/kg/injection, schedule: Q04DX002 (ip), vehicle: saline
[3] = dose: 100.0 mg/kg/injection, schedule: Q01DX001 (ip), vehicle: carboxymethylcellulose (CMC)
[4] = dose: 200.0 mg/kg/injection, schedule: Q01DX001 (ip), vehicle: carboxymethylcellulose (CMC)
[5] = dose: 400.0 mg/kg/injection, schedule: Q01DX001 (ip), vehicle: carboxymethylcellulose (CMC)

Q: Which survivor count (dose: 50.0 mg/kg/injection, schedule: Q04DX003 (ip), vehicle: Klucel (hydroxypropylcellulose) (HPC)) does the source give for `CCCCCCCCN(C)N=Nc1ccccc1C(=O)O` here?
A: The survivor count was 6 of 6.

Q: What about the T/C (dose: 100.0 mg/kg/injection, schedule: Q01DX009 (ip), vehicle: Klucel (hydroxypropylcellulose) (HPC), evaluated on day 20) of the same molecule?
A: The T/C was 117 % of control.

Q: What about the T/C (dose: 100.0 mg/kg/injection, schedule: Q01DX009 (ip), vehicle: Klucel (hydroxypropylcellulose) (HPC), evaluated on day 30) of the same molecule?
A: Its T/C is 122, 127 [5 of 6 alive], 129 % of control.

Q: What about the survivor count (dose: 100.0 mg/kg/injection, schedule: Q04DX003 (ip), vehicle: Klucel (hydroxypropylcellulose) (HPC)) of the same molecule?
A: Its survivor count is 6 of 6.

Q: And the T/C [1]?
A: Its T/C is 135 % of control.

Q: What about the survivor count [1] of the same molecule?
A: The survivor count was 6 of 6.

Q: What about the survivor count (dose: 200.0 mg/kg/injection, schedule: Q04DX003 (ip), vehicle: Klucel (hydroxypropylcellulose) (HPC)) of the same molecule?
A: Its survivor count is 6 of 6.

Q: And the survivor count (dose: 300.0 mg/kg/injection, schedule: Q01DX009 (ip), vehicle: Klucel (hydroxypropylcellulose) (HPC))?
A: Its survivor count is 2 of 6.

Q: What about the survivor count (dose: 400.0 mg/kg/injection, schedule: Q04DX003 (ip), vehicle: Klucel (hydroxypropylcellulose) (HPC)) of the same molecule?
A: The survivor count was 6 of 6.

Q: How did the survivor count (dose: 6.25 mg/kg/injection, schedule: Q04DX002 (ip), vehicle: saline with Tween-80) turn out when `CCC[As](=O)(O)Cc1ccccc1C` was run?
A: The survivor count was 3 of 6.

Q: What about the survivor count (dose: 12.5 mg/kg/injection, schedule: Q01DX009 (ip), vehicle: saline with Tween-80) of the same molecule?
A: The survivor count was 1 of 3.

Q: And the survivor count (dose: 25.0 mg/kg/injection, schedule: Q01DX001 (ip), vehicle: saline with Tween-80)?
A: Its survivor count is 3 of 6.

Q: And the survivor count (dose: 25.0 mg/kg/injection, schedule: Q01DX009 (ip), vehicle: saline with Tween-80)?
A: The survivor count was 0 of 3.

Q: What about the survivor count (dose: 25.0 mg/kg/injection, schedule: Q04DX002 (ip), vehicle: saline with Tween-80) of the same molecule?
A: Its survivor count is 4 of 6.

Q: And the survivor count (dose: 50.0 mg/kg/injection, schedule: Q01DX001 (ip), vehicle: saline with Tween-80)?
A: Its survivor count is 0 of 6.

Q: And the survivor count (dose: 50.0 mg/kg/injection, schedule: Q01DX009 (ip), vehicle: saline with Tween-80)?
A: The survivor count was 0 of 3.

Q: And the survivor count (dose: 100.0 mg/kg/injection, schedule: Q01DX009 (ip), vehicle: saline with Tween-80)?
A: The survivor count was 0 of 3 and 0 of 6.

Q: And the survivor count (dose: 200.0 mg/kg/injection, schedule: Q01DX009 (ip), vehicle: saline with Tween-80)?
A: Its survivor count is 0 of 6.

Q: What about the survivor count (dose: 400.0 mg/kg/injection, schedule: Q01DX009 (ip), vehicle: saline with Tween-80) of the same molecule?
A: Its survivor count is 0 of 6.

Q: How did the survivor count (dose: 200.0 mg/kg/injection, schedule: Q04DX002 (ip), vehicle: Klucel (hydroxypropylcellulose) (HPC)) turn out when `Cc1ccc([N+](=O)[O-])cc1NC(=O)Oc1ccc2c(C)cc(=O)oc2c1` was run?
A: The survivor count was 4 of 4.

Q: For `N=C([Se])c1cn(C2OC(CO)C(O)C2O)c2ncnc(N)c12` (stereo unspecified), which survivor count (dose: 1.56 mg/kg/injection, schedule: Q01DX005 (ip), vehicle: saline) is on record?
A: The survivor count was 6 of 6.

Q: And the survivor count (dose: 3.12 mg/kg/injection, schedule: Q01DX005 (ip), vehicle: saline)?
A: The survivor count was 2 of 6.

Q: And the survivor count (dose: 6.25 mg/kg/injection, schedule: Q01DX005 (ip), vehicle: saline)?
A: The survivor count was 2 of 6.

Q: What about the survivor count (dose: 12.5 mg/kg/injection, schedule: Q01DX005 (ip), vehicle: saline) of the same molecule?
A: The survivor count was 0 of 6.

Q: And the survivor count (dose: 25.0 mg/kg/injection, schedule: Q01DX005 (ip), vehicle: saline)?
A: Its survivor count is 0 of 6.

Q: What about the survivor count (dose: 50.0 mg/kg/injection, schedule: Q01DX005 (ip), vehicle: saline) of the same molecule?
A: Its survivor count is 0 of 6.

Q: What about the survivor count (dose: 100.0 mg/kg/injection, schedule: Q01DX005 (ip), vehicle: saline) of the same molecule?
A: The survivor count was 0 of 6.

Q: And the survivor count (dose: 200.0 mg/kg/injection, schedule: Q01DX005 (ip), vehicle: saline)?
A: Its survivor count is 0 of 6.

Q: With `O=P(O)(O)C(Cl)(Cl)Cl` as the molecule, how does the survivor count [2] read?
A: The survivor count was 3 of 3.

Q: Which survivor count (dose: 200.0 mg/kg/injection, schedule: Q04DX003 (ip), vehicle: saline with Tween-80) does the source give for `CCN(CCO)Cc1cccc2ccccc12` here?
A: The survivor count was 6 of 6.

Q: And the survivor count (dose: 400.0 mg/kg/injection, schedule: Q04DX003 (ip), vehicle: saline with Tween-80)?
A: Its survivor count is 1 of 6.

Q: What does the source list for `Cc1ccc(NC(=O)N(CCO)N=O)cc1`?
A: survivor count [3]: 2 of 4; survivor count (dose: 118.0 mg/kg/injection, schedule: Q01DX001 (ip), vehicle: carboxymethylcellulose (CMC)): 0 of 4; survivor count (dose: 178.0 mg/kg/injection, schedule: Q01DX001 (ip), vehicle: carboxymethylcellulose (CMC)): 0 of 4 and 1 of 4; T/C [4]: 125 % of control [3 of 4 alive]; survivor count (dose: 267.0 mg/kg/injection, schedule: Q01DX001 (ip), vehicle: carboxymethylcellulose (CMC)): 0 of 4 and 2 of 4; T/C [5]: 125 % of control [3 of 4 alive]; survivor count [5]: 0 of 4; survivor count (dose: 600.0 mg/kg/injection, schedule: Q01DX001 (ip), vehicle: carboxymethylcellulose (CMC)): 0 of 4

Q: For `CC[n+]1cccc(-c2ccc(NC(=O)/C=C/c3ccc(C(=O)Nc4ccc(-c5ccc[n+](CC)c5)cc4)cc3)cc2)c1`, which T/C (dose: 6.25 mg/kg/injection, schedule: Q01DX Z (ip), vehicle: carboxymethylcellulose (CMC)) is on record?
A: The T/C was 148 % of control.

Q: And the T/C (dose: 10.0 mg/kg/injection, schedule: Q01DX001 (ip), vehicle: carboxymethylcellulose (CMC))?
A: Its T/C is 129 % of control.

Q: And the T/C (dose: 16.0 mg/kg/injection, schedule: Q01DX001 (ip), vehicle: carboxymethylcellulose (CMC))?
A: Its T/C is 142 % of control.

Q: And the T/C [4]?
A: Its T/C is 142 % of control.

Q: How did the survivor count (dose: 100.0 mg/kg/injection, schedule: Q04DX002 (ip), vehicle: saline) turn out when `C[N+](C)(C)CCSc1ccc2c3c(cccc13)C(=O)c1ccccc1-2` was run?
A: Its survivor count is 1 of 3.

Q: And the survivor count (dose: 200.0 mg/kg/injection, schedule: Q04DX002 (ip), vehicle: saline)?
A: Its survivor count is 0 of 3.

Q: And the survivor count [2]?
A: Its survivor count is 0 of 3.

Q: With `Oc1ccc(Br)cc1C=Nc1cnc2ccccc2c1` as the molecule, how does the survivor count [5] read?
A: The survivor count was 4 of 4.

Q: Which T/C (dose: 200.0 mg/kg/injection, schedule: Q01DX009 (ip), vehicle: acetone) does the source give for `COc1cc(CC2COCC2Cc2ccc3c(c2)OCO3)cc(OC)c1OC` (stereo unspecified) here?
A: Its T/C is 129 % of control [5 of 6 alive].

Q: Which survivor count [1] does the source give for `O=C(NC(=S)Nc1ccc(Cl)cc1)c1ccccc1` here?
A: The survivor count was 6 of 6.

Q: What about the survivor count (dose: 400.0 mg/kg/injection, schedule: Q01DX009 (ip), vehicle: Klucel (hydroxypropylcellulose) (HPC)) of the same molecule?
A: Its survivor count is 0 of 6.

Q: Which results are given for `N#CCCNC(=O)N(CCC#N)N=O`?
A: T/C (dose: 50.0 mg/kg/injection, schedule: Q01DX Z (ip), vehicle: carboxymethylcellulose (CMC)): 134 and 147 % of control; T/C (dose: 100.0 mg/kg/injection, schedule: Q01DX Z (ip), vehicle: carboxymethylcellulose (CMC)): 139 % of control; T/C (dose: 150.0 mg/kg/injection, schedule: Q01DX Z (ip), vehicle: carboxymethylcellulose (CMC)): 128 % of control; survivor count (dose: 250.0 mg/kg/injection, schedule: Q01DX Z (ip), vehicle: carboxymethylcellulose (CMC)): 5 of 6; survivor count (dose: 300.0 mg/kg/injection, schedule: Q01DX Z (ip), vehicle: carboxymethylcellulose (CMC)): 1 of 6

Q: For `Cc1c2ccc3ccccc3c2c[n+]2ccccc12`, which T/C (dose: 16.0 mg/kg/injection, schedule: Q01DX009 (ip), vehicle: saline sonified) is on record?
A: The T/C was 125 and 136 % of control.

Q: What about the survivor count (dose: 50.0 mg/kg/injection, schedule: Q01DX001 (ip), vehicle: carboxymethylcellulose (CMC)) of the same molecule?
A: Its survivor count is 4 of 4.

Q: And the survivor count [3]?
A: Its survivor count is 4 of 4.

Q: And the survivor count [4]?
A: The survivor count was 4 of 4.

Q: And the survivor count [5]?
A: Its survivor count is 4 of 4.

Q: With `Cc1cn(C2OC(CO)C(O)C2O)c2ncnc(N)c12` (stereo unspecified) as the molecule, how does the survivor count (dose: 25.0 mg/kg/injection, schedule: Q01DX005 (ip), vehicle: water) read?
A: Its survivor count is 0 of 3.

Q: What about the survivor count (dose: 50.0 mg/kg/injection, schedule: Q01DX005 (ip), vehicle: water) of the same molecule?
A: Its survivor count is 0 of 3.

Q: What about the survivor count (dose: 100.0 mg/kg/injection, schedule: Q01DX005 (ip), vehicle: water) of the same molecule?
A: The survivor count was 0 of 3.

Q: What about the survivor count (dose: 200.0 mg/kg/injection, schedule: Q01DX005 (ip), vehicle: water) of the same molecule?
A: Its survivor count is 0 of 3.

Q: And the survivor count (dose: 400.0 mg/kg/injection, schedule: Q01DX005 (ip), vehicle: water)?
A: Its survivor count is 0 of 3.

Q: With `CC1CC=C(C2CC(C)CC(N(C)C)C2=N)CC1` (stereo unspecified) as the molecule, how does the survivor count (dose: 400.0 mg/kg/injection, schedule: Q01DX009 (sc), vehicle: olive oil, sesame oil, peanut oil) read?
A: The survivor count was 2 of 6.
